# Source: the supplement of paper PMC10849652
# Protein sequences, listed by entry. Tags and fused reporters are not part of them. Lines headed by an entry give the natural chain unless they say otherwise; changes in a name come on top.
# UniProt Q7Z2K8: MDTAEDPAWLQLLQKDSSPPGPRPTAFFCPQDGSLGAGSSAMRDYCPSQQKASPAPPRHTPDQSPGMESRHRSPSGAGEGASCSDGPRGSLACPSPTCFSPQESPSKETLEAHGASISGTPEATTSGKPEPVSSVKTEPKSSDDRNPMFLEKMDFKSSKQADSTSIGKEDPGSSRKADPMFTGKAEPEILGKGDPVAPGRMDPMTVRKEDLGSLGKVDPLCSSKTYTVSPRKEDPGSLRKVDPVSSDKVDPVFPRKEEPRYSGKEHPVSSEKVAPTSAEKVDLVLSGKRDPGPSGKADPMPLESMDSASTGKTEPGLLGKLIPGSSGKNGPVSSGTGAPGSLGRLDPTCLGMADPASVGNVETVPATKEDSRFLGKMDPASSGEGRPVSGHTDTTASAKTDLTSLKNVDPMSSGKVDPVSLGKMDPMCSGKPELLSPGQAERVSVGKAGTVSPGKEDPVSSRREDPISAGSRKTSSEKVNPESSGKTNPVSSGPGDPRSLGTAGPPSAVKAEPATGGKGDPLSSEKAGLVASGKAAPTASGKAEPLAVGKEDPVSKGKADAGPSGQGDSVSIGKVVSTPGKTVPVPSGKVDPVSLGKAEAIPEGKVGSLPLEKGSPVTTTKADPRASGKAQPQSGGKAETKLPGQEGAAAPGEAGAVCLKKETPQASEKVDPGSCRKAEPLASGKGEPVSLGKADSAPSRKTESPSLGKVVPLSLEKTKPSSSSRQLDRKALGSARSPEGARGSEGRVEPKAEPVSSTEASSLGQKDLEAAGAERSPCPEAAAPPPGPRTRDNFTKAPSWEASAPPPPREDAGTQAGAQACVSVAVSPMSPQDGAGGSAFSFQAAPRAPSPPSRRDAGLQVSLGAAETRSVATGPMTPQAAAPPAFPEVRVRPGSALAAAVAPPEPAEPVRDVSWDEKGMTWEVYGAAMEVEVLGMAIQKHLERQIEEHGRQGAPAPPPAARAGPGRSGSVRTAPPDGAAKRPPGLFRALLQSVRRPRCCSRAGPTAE
# UniProt P62873, whole entry, looked up: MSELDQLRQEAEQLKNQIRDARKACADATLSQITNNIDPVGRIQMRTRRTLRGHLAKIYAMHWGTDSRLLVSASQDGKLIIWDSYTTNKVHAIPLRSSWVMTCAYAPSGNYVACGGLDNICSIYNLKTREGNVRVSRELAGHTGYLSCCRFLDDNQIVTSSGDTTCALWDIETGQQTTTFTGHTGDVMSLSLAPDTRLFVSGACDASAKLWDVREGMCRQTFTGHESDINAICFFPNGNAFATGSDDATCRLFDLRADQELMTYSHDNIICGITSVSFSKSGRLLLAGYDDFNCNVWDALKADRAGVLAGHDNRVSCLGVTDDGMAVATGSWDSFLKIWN
# UniProt Q9UHW5, whole entry, looked up: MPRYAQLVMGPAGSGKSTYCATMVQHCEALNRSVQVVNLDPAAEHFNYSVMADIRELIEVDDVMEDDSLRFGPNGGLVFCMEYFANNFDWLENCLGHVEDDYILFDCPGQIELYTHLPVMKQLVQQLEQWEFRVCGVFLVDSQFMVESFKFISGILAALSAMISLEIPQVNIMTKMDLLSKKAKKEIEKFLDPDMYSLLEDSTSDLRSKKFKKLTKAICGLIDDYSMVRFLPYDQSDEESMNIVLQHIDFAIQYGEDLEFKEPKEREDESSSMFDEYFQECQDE
# UniProt Q14344, whole entry, looked up: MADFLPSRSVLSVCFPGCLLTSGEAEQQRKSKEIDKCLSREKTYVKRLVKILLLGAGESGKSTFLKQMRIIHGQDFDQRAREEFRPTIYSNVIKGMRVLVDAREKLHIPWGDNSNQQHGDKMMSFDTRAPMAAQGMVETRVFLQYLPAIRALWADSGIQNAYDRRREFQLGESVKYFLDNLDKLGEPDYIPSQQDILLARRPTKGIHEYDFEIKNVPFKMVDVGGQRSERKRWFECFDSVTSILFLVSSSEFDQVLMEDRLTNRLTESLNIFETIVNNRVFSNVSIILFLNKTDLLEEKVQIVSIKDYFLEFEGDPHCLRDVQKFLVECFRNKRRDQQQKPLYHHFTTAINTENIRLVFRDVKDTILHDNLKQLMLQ
# UniProt Q08379: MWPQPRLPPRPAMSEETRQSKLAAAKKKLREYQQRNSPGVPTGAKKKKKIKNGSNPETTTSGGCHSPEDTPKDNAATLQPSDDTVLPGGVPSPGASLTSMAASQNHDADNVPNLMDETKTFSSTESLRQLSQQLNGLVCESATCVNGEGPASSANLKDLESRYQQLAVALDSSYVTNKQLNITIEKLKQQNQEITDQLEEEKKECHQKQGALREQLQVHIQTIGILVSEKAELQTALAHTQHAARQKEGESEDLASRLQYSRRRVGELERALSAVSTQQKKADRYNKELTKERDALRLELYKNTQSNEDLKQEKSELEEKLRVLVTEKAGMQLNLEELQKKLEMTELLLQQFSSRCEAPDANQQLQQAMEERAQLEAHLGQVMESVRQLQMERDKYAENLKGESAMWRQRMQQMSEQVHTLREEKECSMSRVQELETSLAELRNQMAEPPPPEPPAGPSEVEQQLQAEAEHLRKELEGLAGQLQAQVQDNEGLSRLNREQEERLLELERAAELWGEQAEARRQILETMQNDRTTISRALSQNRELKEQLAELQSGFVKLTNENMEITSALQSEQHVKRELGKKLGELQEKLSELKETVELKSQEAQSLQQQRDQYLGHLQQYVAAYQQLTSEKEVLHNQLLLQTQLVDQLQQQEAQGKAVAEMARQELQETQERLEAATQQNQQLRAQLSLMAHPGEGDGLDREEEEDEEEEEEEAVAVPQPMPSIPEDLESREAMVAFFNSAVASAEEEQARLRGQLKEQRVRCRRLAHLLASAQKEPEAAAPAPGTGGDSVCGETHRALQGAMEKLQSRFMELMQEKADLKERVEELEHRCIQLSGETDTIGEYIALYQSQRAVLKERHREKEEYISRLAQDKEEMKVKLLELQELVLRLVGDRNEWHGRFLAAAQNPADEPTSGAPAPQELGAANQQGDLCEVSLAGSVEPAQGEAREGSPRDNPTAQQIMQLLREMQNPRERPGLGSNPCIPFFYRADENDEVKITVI
# UniProt Q8N2G8: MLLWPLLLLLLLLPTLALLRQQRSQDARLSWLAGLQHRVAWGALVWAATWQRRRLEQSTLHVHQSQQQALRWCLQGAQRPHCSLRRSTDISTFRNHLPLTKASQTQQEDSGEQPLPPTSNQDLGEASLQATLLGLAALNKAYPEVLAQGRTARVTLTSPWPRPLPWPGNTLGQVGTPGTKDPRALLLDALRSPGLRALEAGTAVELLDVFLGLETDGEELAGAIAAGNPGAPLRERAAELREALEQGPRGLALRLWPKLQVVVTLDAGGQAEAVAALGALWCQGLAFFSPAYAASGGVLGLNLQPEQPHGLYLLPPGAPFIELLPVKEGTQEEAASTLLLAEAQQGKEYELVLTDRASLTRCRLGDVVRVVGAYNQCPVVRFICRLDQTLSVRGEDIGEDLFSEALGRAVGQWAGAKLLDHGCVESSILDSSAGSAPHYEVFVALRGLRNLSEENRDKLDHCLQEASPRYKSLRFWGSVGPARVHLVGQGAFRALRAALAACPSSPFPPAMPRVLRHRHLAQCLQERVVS
# UniProt O00461: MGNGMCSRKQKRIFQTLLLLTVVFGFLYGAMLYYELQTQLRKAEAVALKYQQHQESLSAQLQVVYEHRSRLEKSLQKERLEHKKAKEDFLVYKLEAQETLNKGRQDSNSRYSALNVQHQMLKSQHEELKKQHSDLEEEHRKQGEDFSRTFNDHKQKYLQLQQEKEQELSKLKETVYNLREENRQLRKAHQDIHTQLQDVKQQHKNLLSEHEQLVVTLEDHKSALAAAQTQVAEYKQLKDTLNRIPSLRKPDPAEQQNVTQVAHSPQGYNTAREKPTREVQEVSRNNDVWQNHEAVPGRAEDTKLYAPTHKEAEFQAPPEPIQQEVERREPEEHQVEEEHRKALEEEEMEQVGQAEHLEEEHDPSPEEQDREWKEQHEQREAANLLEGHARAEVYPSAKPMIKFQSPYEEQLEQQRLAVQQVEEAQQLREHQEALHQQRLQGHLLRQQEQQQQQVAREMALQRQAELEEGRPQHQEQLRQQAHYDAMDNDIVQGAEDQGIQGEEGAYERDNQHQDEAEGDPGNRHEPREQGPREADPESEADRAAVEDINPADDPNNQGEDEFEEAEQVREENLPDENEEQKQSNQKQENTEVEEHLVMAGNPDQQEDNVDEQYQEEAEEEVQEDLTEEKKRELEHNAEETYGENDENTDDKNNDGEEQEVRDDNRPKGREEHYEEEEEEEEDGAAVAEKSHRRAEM
# UniProt Q9H4A5: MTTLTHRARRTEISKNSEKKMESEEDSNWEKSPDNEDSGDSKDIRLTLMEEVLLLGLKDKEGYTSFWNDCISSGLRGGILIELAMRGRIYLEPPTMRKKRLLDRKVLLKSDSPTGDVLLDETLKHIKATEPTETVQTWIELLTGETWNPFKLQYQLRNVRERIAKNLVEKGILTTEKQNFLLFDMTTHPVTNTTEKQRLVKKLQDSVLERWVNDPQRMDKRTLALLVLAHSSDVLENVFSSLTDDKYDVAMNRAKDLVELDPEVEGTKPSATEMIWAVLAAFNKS
# UniProt P60983, whole entry, looked up: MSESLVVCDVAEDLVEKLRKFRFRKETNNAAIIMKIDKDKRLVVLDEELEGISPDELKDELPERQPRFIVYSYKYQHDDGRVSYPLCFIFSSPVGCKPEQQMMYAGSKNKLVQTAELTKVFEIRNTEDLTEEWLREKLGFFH
# UniProt O95749: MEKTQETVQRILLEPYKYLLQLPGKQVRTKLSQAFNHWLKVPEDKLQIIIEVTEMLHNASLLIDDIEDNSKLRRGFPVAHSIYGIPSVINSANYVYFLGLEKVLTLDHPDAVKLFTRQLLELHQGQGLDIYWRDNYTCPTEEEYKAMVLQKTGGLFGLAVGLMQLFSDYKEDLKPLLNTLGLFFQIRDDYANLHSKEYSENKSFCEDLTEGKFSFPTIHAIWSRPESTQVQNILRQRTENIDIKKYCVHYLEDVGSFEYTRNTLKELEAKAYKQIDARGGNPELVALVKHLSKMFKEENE
# UniProt Q86YR5: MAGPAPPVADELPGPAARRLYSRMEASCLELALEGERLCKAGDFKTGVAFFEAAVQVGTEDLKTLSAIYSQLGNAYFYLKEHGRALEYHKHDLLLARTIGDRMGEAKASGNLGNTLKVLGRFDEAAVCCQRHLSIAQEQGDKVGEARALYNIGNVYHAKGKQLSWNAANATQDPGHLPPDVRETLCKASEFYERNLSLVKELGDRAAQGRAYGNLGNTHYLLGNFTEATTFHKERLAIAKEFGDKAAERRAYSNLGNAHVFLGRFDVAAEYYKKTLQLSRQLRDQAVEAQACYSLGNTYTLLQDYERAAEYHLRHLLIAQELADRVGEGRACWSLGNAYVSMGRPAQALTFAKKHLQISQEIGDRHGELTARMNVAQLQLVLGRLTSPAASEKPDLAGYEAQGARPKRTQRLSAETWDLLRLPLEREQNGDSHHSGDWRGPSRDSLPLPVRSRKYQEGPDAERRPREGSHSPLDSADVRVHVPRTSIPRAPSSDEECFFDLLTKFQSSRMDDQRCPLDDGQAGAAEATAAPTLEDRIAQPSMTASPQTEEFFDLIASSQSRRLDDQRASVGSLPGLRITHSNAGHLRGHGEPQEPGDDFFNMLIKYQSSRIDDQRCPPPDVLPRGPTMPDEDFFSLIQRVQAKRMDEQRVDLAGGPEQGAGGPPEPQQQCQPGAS
# UniProt Q9BRX5: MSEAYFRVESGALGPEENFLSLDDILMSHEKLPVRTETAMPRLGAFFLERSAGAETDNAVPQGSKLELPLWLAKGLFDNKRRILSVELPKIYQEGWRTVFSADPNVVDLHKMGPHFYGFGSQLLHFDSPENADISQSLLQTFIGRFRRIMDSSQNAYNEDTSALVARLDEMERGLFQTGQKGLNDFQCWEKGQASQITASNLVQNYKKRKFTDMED
# UniProt P21695: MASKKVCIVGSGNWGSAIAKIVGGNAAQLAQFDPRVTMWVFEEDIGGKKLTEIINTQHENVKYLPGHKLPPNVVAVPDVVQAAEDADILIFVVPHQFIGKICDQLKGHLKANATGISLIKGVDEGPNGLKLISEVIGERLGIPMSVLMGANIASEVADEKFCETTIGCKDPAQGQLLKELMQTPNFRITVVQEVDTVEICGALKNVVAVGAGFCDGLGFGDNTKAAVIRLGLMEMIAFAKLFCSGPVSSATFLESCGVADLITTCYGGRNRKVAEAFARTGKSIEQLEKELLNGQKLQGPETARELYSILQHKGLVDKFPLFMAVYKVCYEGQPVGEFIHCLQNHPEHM
# UniProt Q9H9Y4: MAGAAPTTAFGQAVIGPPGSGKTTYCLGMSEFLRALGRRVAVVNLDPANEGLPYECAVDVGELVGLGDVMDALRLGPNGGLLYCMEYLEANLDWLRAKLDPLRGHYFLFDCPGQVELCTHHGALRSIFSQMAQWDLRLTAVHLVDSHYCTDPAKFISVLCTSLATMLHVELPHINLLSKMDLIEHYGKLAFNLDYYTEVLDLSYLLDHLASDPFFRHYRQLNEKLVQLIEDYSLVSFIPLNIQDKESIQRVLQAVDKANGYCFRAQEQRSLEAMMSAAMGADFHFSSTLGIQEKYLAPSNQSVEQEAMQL
# The list shows a part of the results.
# Assays:
# Test in all cases: log2 fold change, soluble protein after heating vs DMSO (PISA); higher = thermal stabilisation; K562 lysate, 10 uM; active = over 0.2 and 3.5 SD of the protein, either way, in both replicates (recomputed)
# erlotinib = compound: C#Cc1cccc(Nc2ncnc3cc(OCCOC)c(OCCOC)cc23)c1 [erlotinib]
# How it was run: (§1)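 Quantification was by TMTpro 16plex LC-MS/MS with equalised channel sums, applied to the supernatant after 21,000xg for 90 min. Samples were crude K562 extract at 1 mg/mL protein in PBS pH 7.4 with 1 mM MgCl2, treated with 10 μM compound for 30 min, heated for 3 min across 48°C-58°C, pooled and brought to 0.5% NP-40 at 4°C. Values are log-two fold changes in thermal stability relative to solvent controls, from duplicates.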
# [1] = compound: C/C(=N\NC(=O)C1=CC(=CC=C1)S(=O)(=O)N2CCOCC2)/C3=C(C=CC(=C3)Cl)O
# How it was run: as §1
# [2] = compound: C1=CC(=CC=C1C2=NC3=C(N2)C=C(C=C3)C(=O)N)OC4=CC=C(C=C4)Cl
# How it was run: as §1
# [3] = compound: C1=CC2=C(C=CC(=C2)/C=C\3/C(=O)NC(=NCC4=CC=CS4)S3)N=C1
# How it was run: as §1
# [4] = compound: C1=CC2=NC=CN=C2C=C1/C=C/3\C(=O)NC(=O)S3
# How it was run: as §1
# [5] = compound: C1=CC=C(C=C1)C2=NC(=C(N2)C3=CC=NC=C3)C4=CC(=C(C=C4)Cl)O
# How it was run: as §1
# [6] = compound: C1=CC=C2C(=C1)C3=NNC4=CC=CC(=C43)C2=O
# How it was run: as §1
# [7] = compound: C1CCN(C1)C(=O)NC2=CC=CC(=C2)NC3=NC=C(C(=N3)NCCC4=CN=CN4)Br
# How it was run: as §1
# [8] = compound: C1CN(CCC1(CC2=CC=C(C=C2)Cl)N)C3=NC=NC4=C3C=CN4
# How it was run: as §1
# IRAK-1-4 Inhibitor I = compound: C1COCCN1CCN2C3=CC=CC=C3N=C2NC(=O)C4=CC(=CC=C4)[N+](=O)[O-] [IRAK-1-4 Inhibitor I]
# How it was run: as §1
Target,log2 fold change (erlotinib),log2 fold change [1],log2 fold change [2],log2 fold change [3],log2 fold change [4],log2 fold change [5],log2 fold change [6],log2 fold change [7],log2 fold change [8],log2 fold change (IRAK-1-4 Inhibitor I)
GPRIN1 (UniProt Q7Z2K8),inactive: 0,inactive: -0.006,inactive: 0.019,inactive: -0.032,inactive: -0.037,inactive: -0.024,inactive: 0,inactive: 0.016,inactive: -0.009,inactive: 0.024
GLYR1 (UniProt Q49A26),inactive: 0.025,inactive: 0.061,inactive: -0.018,inactive: 0.021,inactive: 0.041,inactive: 0.029,inactive: -0.01,inactive: 0.11,inactive: 0.035,inactive: 0.006
GLCCI1 (UniProt Q86VQ1),inactive: -0.081,inactive: 0.069,inactive: -0.011,inactive: 0.024,inactive: -0.04,inactive: -0.019,inactive: -0.06,inactive: -0.127,inactive: -0.017,inactive: 0
GNB1 (UniProt P62873),inactive: 0.053,inactive: 0.018,inactive: 0.082,inactive: -0.019,inactive: -0.015,inactive: -0.022,inactive: 0.023,inactive: -0.017,inactive: -0.031,inactive: 0.012
GLG1 isoform 2 (UniProt Q92896),inactive: -0.017,inactive: -0.034,inactive: 0.008,inactive: 0.064,inactive: -0.022,inactive: 0.021,inactive: 0.007,inactive: -0.002,inactive: 0.011,inactive: -0.021
GPN3 isoform 2 (UniProt Q9UHW5),inactive: 0.003,inactive: -0.162,inactive: 0.068,inactive: -0.077,inactive: 0.018,inactive: -0.047,inactive: 0.083,inactive: -0.046,inactive: -0.019,inactive: 0.055
GNA13 (UniProt Q14344),inactive: -0.011,inactive: 0.068,inactive: -0.009,inactive: -0.015,inactive: 0.022,inactive: -0.017,inactive: -0.009,inactive: -0.01,inactive: 0.068,inactive: 0.005
GPKOW (UniProt Q92917),inactive: -0.011,inactive: 0.009,inactive: 0,inactive: -0.004,inactive: -0.022,inactive: 0.024,inactive: -0.006,inactive: -0.003,inactive: 0.007,inactive: 0.002
GPS1 (UniProt A8K070),inactive: 0.019,inactive: 0.068,inactive: 0.011,inactive: 0.042,inactive: 0.038,inactive: 0.05,inactive: 0.008,inactive: -0.016,inactive: 0.032,inactive: 0.01
GOLGA2 (UniProt Q08379),inactive: 0.002,inactive: 0.022,inactive: -0.012,inactive: -0.002,inactive: -0.007,inactive: -0.011,inactive: -0.161,inactive: 0.035,inactive: 0.046,inactive: -0.004
GIT1 (UniProt Q9Y2X7),inactive: -0.003,inactive: 0.011,inactive: -0.039,inactive: 0.054,inactive: -0.014,inactive: -0.014,inactive: -0.009,inactive: 0,inactive: -0.011,inactive: 0.017
GNAQ (UniProt P50148),inactive: -0.04,inactive: -0.053,inactive: -0.127,inactive: -0.074,inactive: -0.043,inactive: 0.023,inactive: 0.065,inactive: 0.018,inactive: -0.041,inactive: 0.037
GOLPH3 (UniProt Q9H4A6),inactive: 0.022,inactive: -0.041,inactive: -0.075,inactive: 0.017,inactive: 0.012,inactive: 0.004,inactive: 0.019,inactive: -0.008,inactive: -0.02,inactive: 0.035
GPS1 isoform 6 (UniProt Q13098),inactive: 0.005,inactive: -0.016,inactive: 0.014,inactive: 0.002,inactive: 0.027,inactive: 0.002,inactive: -0.004,inactive: -0.014,inactive: -0.012,inactive: 0.004
GHDC (UniProt Q8N2G8),inactive: 0.008,inactive: 0.001,inactive: -0.107,inactive: -0.053,inactive: -0.033,inactive: 0.019,inactive: -0.053,inactive: -0.064,inactive: 0.206,inactive: -0.012
GLOD4 isoform 2 (UniProt Q9HC38),inactive: -0.005,inactive: 0.02,inactive: -0.005,inactive: -0.007,inactive: 0.006,inactive: 0.005,inactive: -0.007,inactive: 0.004,inactive: 0,inactive: -0.018
GOLIM4 (UniProt O00461),inactive: -0.005,inactive: 0.01,inactive: 0.009,inactive: 0.028,inactive: 0.006,inactive: -0.017,inactive: -0.07,inactive: -0.014,inactive: -0.021,inactive: 0.003
GNS (UniProt P15586),inactive: -0.012,inactive: -0.033,inactive: 0.03,inactive: -0.025,inactive: -0.036,inactive: -0.011,inactive: -0.004,inactive: 0.013,inactive: -0.015,inactive: -0.016
GNL2 (UniProt Q13823),inactive: 0.026,inactive: 0.007,inactive: -0.071,inactive: 0.015,inactive: 0.02,inactive: 0.04,inactive: 0.04,inactive: 0.004,inactive: -0.015,inactive: 0.046
GOLPH3L (UniProt Q9H4A5),inactive: 0.028,inactive: -0.003,inactive: 0.012,inactive: 0.07,inactive: -0.03,inactive: 0.092,inactive: -0.085,inactive: 0.005,inactive: 0.03,inactive: 0.023
GID8 (UniProt Q9NWU2),inactive: 0.008,inactive: 0.04,inactive: 0.038,inactive: 0.024,inactive: -0.02,inactive: 0,inactive: 0.017,inactive: 0.033,inactive: 0.07,inactive: -0.011
GMFB (UniProt P60983),inactive: -0.023,inactive: -0.109,inactive: -0.007,inactive: 0.008,inactive: 0.029,inactive: -0.025,inactive: 0.102,inactive: 0.024,inactive: -0.021,inactive: -0.061
GGPS1 (UniProt O95749),inactive: -0.03,inactive: -0.018,inactive: -0.009,inactive: 0.031,inactive: 0.001,inactive: -0.022,inactive: -0.028,inactive: 0.001,inactive: 0,inactive: -0.015
GMPPB isoform 2 (UniProt Q9Y5P6),inactive: 0.052,inactive: -0.189,inactive: -0.024,inactive: -0.063,inactive: 0.022,inactive: -0.012,inactive: 0.001,inactive: 0.021,inactive: 0.047,inactive: 0.028
GPSM1 (UniProt Q86YR5),inactive: -0.012,inactive: -0.141,inactive: -0.049,inactive: -0.045,–,–,inactive: -0.027,inactive: 0.135,inactive: 0.083,–
GNL3 (UniProt Q9BVP2),inactive: 0.004,inactive: -0.072,inactive: 0.002,inactive: 0.009,inactive: -0.062,inactive: 0.015,inactive: -0.011,inactive: 0.021,inactive: 0.014,inactive: 0.033
GPRASP2 (UniProt Q96D09),–,inactive: -0.015,–,inactive: -0.075,inactive: 0.071,inactive: -0.008,inactive: 0.061,inactive: -0.115,inactive: 0.048,inactive: 0.111
GINS3 (UniProt Q9BRX5),inactive: -0.039,inactive: 0.006,inactive: -0.053,inactive: 0.015,inactive: -0.031,inactive: -0.011,inactive: 0.007,inactive: 0.016,inactive: 0.073,inactive: -0.012
GPD1 (UniProt P21695),inactive: 0.078,inactive: 0.093,inactive: 0.086,inactive: -0.19,inactive: -0.025,inactive: -0.148,inactive: -0.075,inactive: -0.043,inactive: 0.093,inactive: 0.193
GPN2 (UniProt Q9H9Y4),inactive: -0.022,inactive: 0.089,inactive: 0.032,inactive: 0.043,–,inactive: -0.041,inactive: -0.056,active: -0.241,inactive: -0.062,inactive: -0.027

# Reformatted with tabs: entries from further up.
Target	log2 fold change (erlotinib)	log2 fold change [1]	log2 fold change [2]	log2 fold change [3]	log2 fold change [4]	log2 fold change [5]	log2 fold change [6]	log2 fold change [7]	log2 fold change [8]	log2 fold change (IRAK-1-4 Inhibitor I)
GINS3 (UniProt Q9BRX5)	inactive: -0.039	inactive: 0.006	inactive: -0.053	inactive: 0.015	inactive: -0.031	inactive: -0.011	inactive: 0.007	inactive: 0.016	inactive: 0.073	inactive: -0.012
GPD1 (UniProt P21695)	inactive: 0.078	inactive: 0.093	inactive: 0.086	inactive: -0.19	inactive: -0.025	inactive: -0.148	inactive: -0.075	inactive: -0.043	inactive: 0.093	inactive: 0.193
